# Results are given in words; binding and its absence hold for the method and conditions named. In cells and extracts the contact can be indirect. Some entries that bind do so weakly or less than the wild type.
# The chains behind the UniProt entries cited, without tags or fusion partners.
# UniProt O00308: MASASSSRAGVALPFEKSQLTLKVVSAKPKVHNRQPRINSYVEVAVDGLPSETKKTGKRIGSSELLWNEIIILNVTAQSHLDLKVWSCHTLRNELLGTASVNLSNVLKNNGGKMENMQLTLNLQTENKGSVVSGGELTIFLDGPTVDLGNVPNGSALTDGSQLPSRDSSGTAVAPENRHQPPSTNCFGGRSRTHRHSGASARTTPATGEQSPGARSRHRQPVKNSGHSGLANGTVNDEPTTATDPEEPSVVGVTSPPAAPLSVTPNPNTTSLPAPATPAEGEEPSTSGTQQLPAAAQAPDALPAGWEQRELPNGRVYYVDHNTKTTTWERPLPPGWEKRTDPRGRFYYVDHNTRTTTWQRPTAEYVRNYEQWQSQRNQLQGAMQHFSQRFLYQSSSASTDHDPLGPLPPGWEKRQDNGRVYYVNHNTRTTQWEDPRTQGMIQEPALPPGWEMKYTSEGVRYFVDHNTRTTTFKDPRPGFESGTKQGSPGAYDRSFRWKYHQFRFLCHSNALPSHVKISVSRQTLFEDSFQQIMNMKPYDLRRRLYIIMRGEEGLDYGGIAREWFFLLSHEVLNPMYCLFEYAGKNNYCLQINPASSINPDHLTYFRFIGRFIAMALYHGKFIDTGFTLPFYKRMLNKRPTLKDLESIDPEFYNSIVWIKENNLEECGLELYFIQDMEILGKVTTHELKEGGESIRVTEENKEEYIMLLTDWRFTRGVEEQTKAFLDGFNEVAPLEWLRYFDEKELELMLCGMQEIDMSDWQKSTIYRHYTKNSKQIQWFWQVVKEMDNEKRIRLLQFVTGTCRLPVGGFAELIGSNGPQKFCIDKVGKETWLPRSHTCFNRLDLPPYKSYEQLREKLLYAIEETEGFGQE
# Molecular target: WWP2 (human (endogenous in HUVEC)) (UniProt O00308)
# Assay: co-IP; cell extracts (cells not named) incubated with anti-WWP2 or anti-PDCD4 antibody and Protein A/G, 4°C; blotted for PDCD4 or WWP2; IgG as negative control
binder,measurement,value
"Programmed cell death 4 (PDCD4) (protein, UniProt Q53EL6 1-469) MDVENEQILNVNPADPDNLSDSLFSGDEENAGTEEIKNEINGNWISASSINEARINAKAKRRLRKNSSRDSGRGDSVSDSGSDALRSGLTVPTSPKGRLLDRRSRSGKGRGLPKKGGAGGKGVWGTPGQVYDVEEVDVKDPNYDDDQENCVYETVVLPLDERAFEKTLTPIIQEYFEHGDTNEVAEMLRDLNLGEMKSGVPVLAVSLALEGKASHREMTSKLLSDLCGTVMSTTDVEKSFDKLLKDLPELALDTPRAPQLVGQFIARAVGDGILCNTYIDSYKGTVDCVQARAALDKATVLLSMSKGGKRKDSVWGSGGGQQSVNHLVKEIDMLLKEYLLSGDISEAEHCLKELEVPHFHHELVYEAIIMVLESTGESTFKMILDLLKSLWKSSTITVDQMKRGYERIYNEIPDINLDVPHSYSVLERFVEECFQAGIISKQLRDLCPSRGRKRFVSEGDGGRLKPESY",binding,binds
